The target of the experiment is human MCSP(D3 domain)-avi-his (human) (UniProt Q6UVK1). Nature of the experiment: SPR Biacore T200. Background: In SPR one partner is held on a chip, and binding of the other changes the refractive index at the surface.

Protein sequences, listed by entry. Tags and fused reporters are not part of them. Residues count along the entry.
UniProt Q6UVK1, residues 1587-2221: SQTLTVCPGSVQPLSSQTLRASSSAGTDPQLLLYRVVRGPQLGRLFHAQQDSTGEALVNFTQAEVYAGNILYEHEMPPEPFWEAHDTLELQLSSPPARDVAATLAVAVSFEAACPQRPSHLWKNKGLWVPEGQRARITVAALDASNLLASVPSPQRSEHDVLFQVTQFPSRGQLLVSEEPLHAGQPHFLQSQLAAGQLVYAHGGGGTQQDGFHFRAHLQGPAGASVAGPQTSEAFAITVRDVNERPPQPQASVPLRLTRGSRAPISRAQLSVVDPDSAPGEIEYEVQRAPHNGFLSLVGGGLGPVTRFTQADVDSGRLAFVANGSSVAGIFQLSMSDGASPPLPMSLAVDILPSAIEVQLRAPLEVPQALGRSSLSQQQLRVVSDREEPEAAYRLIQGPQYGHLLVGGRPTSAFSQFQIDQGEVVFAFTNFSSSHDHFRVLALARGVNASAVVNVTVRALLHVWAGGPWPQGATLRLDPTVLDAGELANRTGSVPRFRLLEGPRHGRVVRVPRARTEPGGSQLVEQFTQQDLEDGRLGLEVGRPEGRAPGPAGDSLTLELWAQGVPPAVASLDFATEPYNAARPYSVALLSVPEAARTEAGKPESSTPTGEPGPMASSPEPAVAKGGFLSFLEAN

No constants are given. Whether binding was seen depends on the method and setting. Some results given as binding are weak or reduced against the parent protein; the word gives no strength.

B1: M4-3(C1)/ML2(G3) IgG (antibody, V domains shown)
VH: QVQLQESGPGLVKPSQTLSLTCTVSGGSITSGYYWNWIRQHPGKGLEWIGYITFDGSNNYNPSLKSRVTISRDTSKNQFSLKLSSVTAADTAVYYCADFDYWGQGTLVTVSS
VL: DIQMTQSPSSLSASVGDRVTITCRASQGIRNYLNWYQQKPGKAPKLLIYYTSSLHSGVPSRFSGSGSGTDYTLTISSLQPEDFATYYCQQYSALPWTFGQGTKVEIKR
In the case of B1, the binding result was “binds”.

B2: M4-3(C1)/ML2(C5) IgG (antibody, V domains shown)
VH: QVQLQESGPGLVKPSQTLSLTCTVSGGSITSGYYWNWIRQHPGKGLEWIGYITFDGSNNYNPSLKSRVTISRDTSKNQFSLKLSSVTAADTAVYYCADFDYWGQGTLVTVSS
VL: DIQMTQSPSSLSASVGDRVTITCRASRGIREYLNWYQQKPGKAPKLLIYYTGSLHSGVPSRFSGSGSGTDFTLTISSLQPEDFATYYCQQYSELPWTFGQGTKVEIK
For the molecule B2, the binding entry was “binds”.

B3: M4-3(C1)/ML2(E10) IgG (antibody, V domains shown)
VH: QVQLQESGPGLVKPSQTLSLTCTVSGGSITSGYYWNWIRQHPGKGLEWIGYITFDGSNNYNPSLKSRVTISRDTSKNQFSLKLSSVTAADTAVYYCADFDYWGQGTLVTVSS
VL: DIQMTQSPSSLSASVGDRVTITCRASYGIRGYLNWYQQKPGKAPKLLIYYTSSLHSGVPSRFSGSGSGTDFTLTISSLQPEDFATYHCQQYSKLPWTFGQGTKVEIK
For B3, the binding result was “binds”.

These data come from patent US20160130347A1.
